Test results taken from PubChem BioAssay AID1347423 (Functional Genomics Laboratory (NCATS/FGL), 2020).
The campaign covered roughly 52,000 sequences. About 210 (0.4%) were called active.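 How the source made its calls: active means gene whose silencing raises cell survival under the drug, median off-target-corrected z-score across its silencing RNAs 2 or more; inactive means the rest.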 The list shows a part of the results.

Experiment: Resistance to Poly (ADP-Ribose) Polymerase inhibitor: Gene Identification via Genome-wide siRNA Screen
Details: mouse BRCA2 R2336H ES cells, olaparib, CellTiter-Glo viability; stronger effect = higher value
In short: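 Genome-wide siRNA screen (3 siRNAs/gene, 20 nM) in mouse ES cells carrying hypomorphic BRCA2 R2336H; olaparib 500 nM added 48 h post-transfection, CellTiter-Glo viability 72 h later. Normalized to plate-median negative control; MAD z-scores, gene median, seed-adjusted.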

Sequence | z-score
GGCAGUUCAAGGCAAUAAATT against Olfm1 | inactive: -2.09
GCCGCUUGAAGACCAGAAATT against Trp53i11 | inactive: -0.231
GGGUGGAGUAAAGCUCUAUTT against Olfr1223 | inactive: -0.89
GGAUGUCCAGAUGUAAAUATT against Vps16 | inactive: -1.42
GCUAAUCAAGACCGAGCAUTT against Vps33b | inactive: 2.61
GGAUGGUGCUGUAAAGAAATT against Crlz1 | inactive: -1.61
CCACUAGUUAGGUACUAACTT against Ifitm6 | inactive: -1.1
GGAGAGCCUUAUUCAUCGCTT against H2-DMb2 | inactive: -0.0154
GGGUAGUUUAUUUCUUUGCTT against AV125803 | inactive: 0.827
GCCACUGUACCUUAUUGGUTT against Sepx1 | inactive: -0.0851
GGAGGACUGUCCAAAAGAATT against Tnfrsf18 | inactive: -0.973
GGAUUUCAACCUUCUUGUUTT against 2310057N15Rik | inactive: -0.385
GCAAGAGUUAGUCUAAUGUTT against A730042J05Rik | inactive: -0.469
GGUAUGAGCUGAUCAAGUATT against Slc27a2 | inactive: -0.927
GAAAUGCAACGGCCACUGCTT against Spp1 | inactive: -1.61
GGAAAAGCCGCACUUUAUATT against 2700087H15Rik | inactive: -0.564
CCCUGAUUCCAAGUCAUCATT against Lect2 | inactive: 1.5
GGUAUUGGGUUCCAUUAUATT against 6030422M02Rik | inactive: 1.94
GCAUGAUGGUGCGCUUAAGTT against 1500001L15Rik | inactive: -0.628
GCCCUUGACUUCAAUACCCTT against Shc1 | inactive: 1.72
GGUUUUAGAAUUCUGGACGTT against BC018242 | inactive: -0.843
GCAGCGAUGGGUGUUUAUGTT against BC038059 | inactive: 0.601
GGGUAUAAUCCACAUCCAATT against Tyms | inactive: -0.673
GGAGGUCAAUGACUUCGCATT against Trip10 | inactive: -0.322
CCAAUUUCAUACGGCAGUCTT against Pqlc2 | inactive: 1.82
GCGUGCAUAUAUCCAAUGCTT against Tardbp | inactive: 3.08

Sequence | z-score
CGAAGUAUUUGGUGGACCATT against D14Ertd449e | inactive: -1.35
GGAUGUGAUGGCGACUCUATT against B930041G04 | inactive: -2.07
GGAAAACGAGUCAAACUCATT against Lnx2 | inactive: -0.0784
GCAUUAUGGGACUAGAAGGTT against Scfd1 | inactive: 0.84
CCUGAUAUAUGACUUUGGCTT against Ntf5 | inactive: -0.0586
GGUGCAAAUGGCAGAUACATT against Olfr919 | inactive: -2.6
GGAUGGUUUCCGUAAAGCUTT against Pacsin3 | inactive: -0.0425
GGCUUGAAGUUCAUUUAUUTT against Nkiras2 | inactive: 0.103
CCAUAUUCGAGAUACUCUGTT against Dnm3 | inactive: 1.02
GCUCACAAGCAAGUGCAACTT against Olfr1352 | inactive: 1.11
GCACAGCUAUCAAUGAGCUTT against Olfr1410 | inactive: -0.483
CAUGAACGUGGGUAAAACGTT against Rab20 | inactive: 0.0478
GGGAAUUUUCUCCAAAAUUTT against 5430419D17Rik | inactive: 0.0817
CGACUUGACUGGUCUUAAATT against Cdk8 | inactive: -0.636
GCAUGUCAUACCAGCUAGUTT against Nkd2 | inactive: 1.1
GGGCAUUCAAAGAUGACUATT against Mrpl39 | inactive: -0.59
GCUGGAUCGUUACGUUUAUTT against BC020002 | inactive: -1.83
GCCUGCAUUGCAAAUGAAATT against Krtap13-1 | inactive: 0.113
CGUGAAGUUGCAUGUAUUUTT against 9530020D24Rik | inactive: -1.36
GCAGACUCUGUAUACCAUGTT against Rfx4 | inactive: -1.33
CUUACAUUCCCAGUGUGCCTT against BC047219 | inactive: -0.775
GGAACAGGAAUAUGAAAGATT against Olfr836 | inactive: 0.288
GCUAUCAUAUGUGCCCUAATT against Mrgprc11 | inactive: -1.05
GGAGCUACUGAGAACAUAATT against Hoxd4 | inactive: -2.44
GCGAUGCUCCUAAUUCUUATT against 1700094E07Rik | inactive: 0.193
CCUAGUUAUCAGAAGAAAATT against Pax7 | inactive: -0.7

Sequence | z-score
GGAGAAGCAUGGCUAUAACTT against Rcor1 | inactive: -0.635
GGAACAGCAAAUGUUCUUUTT against Rab38 | inactive: 1.55
GGAAUCAAAGGUCAAGCCATT against 2500002L14Rik | inactive: 1.78
CCCAACCAGACCAAUCCACTT against Enam | inactive: -0.457
GCUUGUGAGUCUUUUCCUATT against D430033A06Rik | inactive: 0.988
GGAGACAACUGUCAAGCUGTT against Nope | inactive: -0.959
GGUGGAAUCACAAAAACGCTT against Tnfsf5ip1 | inactive: -0.207
CGUAUAGGCACAAAGUAAATT against Gm1012 | inactive: 0.715
GCAGCAAACUUUUUAUCCATT against Arcp | inactive: 1.22
GGUCACAGUUGACAAAUGGTT against Cdc16 | inactive: -2.53
GGUGAAGCCAGUUCACGAATT against A030008J09 | inactive: 0.39
GGCAAUGACUAGAGUAAGATT against Rbbp2 | inactive: 0.357
GGAGUCGUAUGAUAACAGATT against 1700023B02Rik | inactive: -0.629
GGAAGCUAUGAACAAUACATT against Sulf2-pending | inactive: 1.46
GGAGGUGAUAAAUAGUGUCTT against C330018L13Rik | inactive: -0.0166
CCAUCUAUCAAAAGCAAAUTT against Reg1 | inactive: 1.75
CGGCACUGUCAUAAGUGUGTT against Tex292 | inactive: -0.13
CGAUGCUUACGACAUUGUUTT against Dusp6 | inactive: 0.254
GCGAAUCCACUUAAUUCGATT against Abhd4 | inactive: 1.48
GGAACAGGAAAAAUGAACUTT against Cetn2 | inactive: 0.351
GGAGAAGUUCCCUAACAUGTT against Ppan | inactive: -1.01
GGGAUUGCCGGACAUGGAUTT against 1110007C24Rik | inactive: 0.406
GGUCAUUCUAAUGACAAUCTT against D14Ertd436e | inactive: 0.133
GGCUCUCUUGCUGUGGGUATT against Dll4 | inactive: -0.229
CGAGAUUUCUAUUUCAGCATT against Mapre3 | inactive: 0.487
CGAUUCCGUCAAAUUAAAGTT against Catsper2 | inactive: -0.66

A few values from the results shown.
Under z-score, GGUCACAGUUGACAAAUGGTT against Cdc16 has inactive: -2.53
Under z-score, CGUAUAGGCACAAAGUAAATT against Gm1012 has inactive: 0.715
Under z-score, GGUGAAGCCAGUUCACGAATT against A030008J09 has inactive: 0.39
Under z-score, GCAGCAAACUUUUUAUCCATT against Arcp has inactive: 1.22
Under z-score, GGGAUUGCCGGACAUGGAUTT against 1110007C24Rik has inactive: 0.406
Under z-score, CCAUCUAUCAAAAGCAAAUTT against Reg1 has inactive: 1.75
Under z-score, GGAACAGCAAAUGUUCUUUTT against Rab38 has inactive: 1.55

Following part:

Sequence | z-score
GGGCAUUAAGUACAAAAAGTT against Ap1m2 | inactive: 0.382
GGUCUAUGGAGACAUUAAATT against Ptprt | inactive: -0.568
GUCCCACUCAGGAGAAUUUTT against BC027309 | inactive: 0.852
CGAAUUCUCUUGGAACAAUTT against Cntn3 | inactive: 0.773
GCUAUGUAUCUUUUGAGAUTT against Chst3 | inactive: -0.0284
GGCUCAUCCCAAUGCUAUATT against Sdc3 | inactive: -1.35
GGGCAUUUCUUCAGCUAAUTT against Tcfec | inactive: 0.0712
GGGACUCAAAAUCAAGAGATT against Mrps28 | inactive: -0.642
GCCAUUCAAAAAUCAGCCGTT against Ddi2 | inactive: 0.0176
GGGAGGGAUUUAUGUCCUCTT against Slc6a2 | inactive: 0.0612
GUUUGAAGGAUCGGAGAAGTT against LOC435684 | inactive: -0.114
GGACCUUGGGCAGAUUCAATT against Atp10d | inactive: 0.908
GCGCGUGACAAGGAGGAUUTT against F630043A04Rik | inactive: -1.57
GCUAGCACUAAGUGAACCUTT against 1110018J12Rik | inactive: 0.625
CCUUAAACGACGAGAAGCATT against Hp | inactive: -0.914
GGACAUGAAGAAAAGCACCTT against Bin3 | inactive: -0.845
GGCAUCAUCCAAAAUUCCCTT against Amd1 | inactive: -1.53
CCGAUCUGAUAUAGUAGAATT against Stk31 | inactive: 0.181
CGUCUAACCACCAUUCGGUTT against A730041O15Rik | inactive: 0.0299
CCACAGUCCCAGUUUCAAGTT against Mcee | inactive: 0.808
GGUUUUGCCUCCCAUAGUATT against Ssty1 | inactive: -0.998
GGAGAAAGUUGAACGUAUUTT against Cct2 | inactive: -2.73
GGUACUCUGUGGAUAUCCCTT against Rpl27 | inactive: -2.48
CCAAGGUGGGUUACAGUGUTT against Zc3hdc3 | inactive: -1.3
GGCCAAGCAUUACAUUUAUTT against Srp54 | inactive: 0.134
GGUGAACAUCACUUAUCCCTT against D630024D12Rik | inactive: 0.893
